# Test results reported in PubChem BioAssay AID2685 (National Center for Advancing Translational Sciences (NCATS), 2010).
# The list shows a part of the results. The main result of the screen is listed elsewhere. These columns were measured beside it and carry no call. The list favours compounds with an active or inconclusive main result. Words in brackets tell the shape of the fitted curve; partial curves, single points and poor fits give uncertain potencies.
# Experiment: qHTS Assay for Lipid Storage Modulators in Drosophila S3 Cells;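 for cell number change: cells counted by Cell Tracker Red CMTPX staining in the red channel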
# Conditions: BODIPY lipid droplet fluorescence, 18-24 h; for cell number change: measured here: cell count max response, cells fed with added oleic acid
# Method in brief: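 Drosophila S3 cells got compounds at several concentrations plus oleic acid (400 uM solution). Laser-scanning cytometry with 488 nm excitation read lipid droplets at 500-530 nm and cells at 575-640 nm. Percent activity was relative to 20 uM Triacsin C.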
# [1] = measured here: lipid fluorescence (Fed channel) AC50, cells fed with added oleic acid
# [2] = measured here: cell number channel AC50, cells fed with added oleic acid
smiles,measurement,setting,value
Nc1ccc(S(=O)(=O)N2CCc3ccccc32)cc1,cell number change,,-8.11%
same,AC50,[1],"6.51 µM [rising, single point]"
O=C(CSc1ccc(Cl)cc1)N1CCOCC1,cell number change,,10.2%
same,AC50,[1],"16.4 µM [rising, single point]"
CCOC(=O)c1nc(N)c(C(=O)OCC)[nH]1,AC50,[2],"0.13 µM [rising, full curve, poor fit]"
COc1cccc(NC(=O)c2cccc(N3C(=O)C4C5C=CC(C5)C4C3=O)c2)c1 (stereo unspecified),AC50,[2],"0.82 µM [rising, partial curve, poor fit]"
same,AC50,[1],"4.11 µM [rising, single point]"
COc1ccc(C)cc1S(=O)(=O)Nc1cccc(-c2ccc(N3CCCCCC3)nn2)c1,cell number change,,26.6%
same,AC50,[1],"20.6 µM [rising, partial curve]"
COc1ccc(NC(=O)CN(C)C(=O)/C=C/c2cn(-c3ccccc3)nc2-c2ccc(C)cc2)cc1,cell number change,,50%
same,AC50,[2],"6.51 µM [rising, single point]"
O=C(CCN1CCOCC1)c1ccc(Cl)cc1,cell number change,,-58.7%
same,AC50,[2],"18.4 µM [falling, single point]"
same,AC50,[1],"16.4 µM [falling, partial curve]"
CCCSc1nnc2nc(C)cc(C)n12,cell number change,,12.2%
same,AC50,[1],"0.146 µM [falling, single point]"
Cc1cc2c(cc(C(=O)OCC(=O)NCc3ccco3)n2C)s1,cell number change,,-33.8%
same,AC50,[2],"4.61 µM [falling, full curve, poor fit]"
CCCC(O)(c1ccc(Br)cc1)C(CN1CCOCC1)c1ccc(Cl)cc1 (stereo unspecified),cell number change,,-39.7%
same,AC50,[2],"20.6 µM [falling, single point]"
same,AC50,[1],"29.1 µM [falling, single point]"
COc1ccccc1N(C)S(=O)(=O)c1ccc(C(=O)NCCc2ccc(F)cc2)cc1,cell number change,,13.1%
same,AC50,[1],"29.1 µM [falling, single point]"
COc1ccc(-n2nc([N+](=O)[O-])c(=NCCc3cccc(C)c3)n2O)cc1,cell number change,,-32.5%
O=C(c1ccc(OC2CCN(C/C=C/c3ccccc3)CC2)cc1)N1CCCCC1,cell number change,,36.4%
same,AC50,[2],"5.17 µM [rising, full curve, poor fit]"
same,AC50,[1],"0.0731 µM [rising, full curve, poor fit]"
O=C(COc1ccccc1)NNC(=O)c1cc2ccccc2o1,cell number change,,22.6%
same,AC50,[1],"2.31 µM [falling, single point]"
Cc1ccnc(NC(=O)CNC(=O)c2sc3ccccc3c2Cl)c1,cell number change,,-1.1%
same,AC50,[1],"29.1 µM [falling, single point]"
Cc1cc(C2(c3cc(C)c(NC(=O)CN4CCOCC4)c(C)c3)CCCCC2)cc(C)c1NC(=O)CN1CCOCC1,cell number change,,-35.2%
same,AC50,[2],"29.1 µM [falling, single point]"
same,AC50,[1],"6.51 µM [falling, single point]"
COc1ccc(NC(=O)CN2C(=O)C(C)Oc3ccc(C)cc32)cc1 (stereo unspecified),cell number change,,3.69%
same,AC50,[1],"29.1 µM [falling, single point]"
CCS(=O)(=O)N1N=C(c2ccccc2)CC1c1ccc2nccnc2c1 (stereo unspecified),cell number change,,25.6%
same,AC50,[1],"5.8 µM [rising, full curve, poor fit]"
O=C(CSCc1cnn(-c2ccccc2)c1-n1cccc1)NCc1cccnc1,cell number change,,30.6%
Cc1ccc(C)c(-c2nnc(NC(=O)CCS(=O)(=O)c3ccccc3)o2)c1,AC50,[2],"6.51 µM [rising, partial curve, poor fit]"
same,AC50,[1],"0.651 µM [rising, partial curve, poor fit]"
Cc1ccc(Nc2nc3ccccc3nc2Nc2c(C)n(C)n(-c3ccccc3)c2=O)cc1,cell number change,,0.447%
same,AC50,[1],"0.146 µM [rising, full curve, poor fit]"
CN1CCC(N(C)C(=S)NCCc2ccccc2)CC1,cell number change,,-36.4%
same,AC50,[2],"7.31 µM [falling, partial curve, poor fit]"
O=C(N/N=C/c1c[nH]c2ccccc12)c1ccccc1,cell number change,,-15.7%
same,AC50,[1],"6.51 µM [rising, single point]"
O=C(CN1CCCC1)NCC1(c2ccccc2)CCOCC1,cell number change,,26.4%
same,AC50,[2],"3.26 µM [rising, single point]"
same,AC50,[1],"5.8 µM [rising, single point]"
CNC(C)c1ccc(S(N)(=O)=O)cc1 (stereo unspecified),cell number change,,-36.2%
same,AC50,[2],"0.0291 µM [falling, partial curve, poor fit]"
same,AC50,[1],"0.517 µM [falling, full curve]"
CC(C)(C)C(=O)Nc1nc(-c2ccc3c(c2)OCO3)cs1,AC50,[1],"0.731 µM [rising, partial curve, poor fit]"
C[C@H](NC(=O)c1nc[nH]c1C(=O)N[C@@H](Cc1ccccc1)C(=O)OCc1ccccc1)C(=O)OC(C)(C)C,cell number change,,59%
same,AC50,[2],"29.1 µM [rising, single point]"
same,AC50,[1],"0.164 µM [falling, partial curve, poor fit]"
Cc1ccccc1N(C(=O)c1snc(C(N)=O)c1N)C(C(=O)NCc1ccccc1)c1ccc(O)cc1 (stereo unspecified),cell number change,,-30.6%
same,AC50,[2],"23.1 µM [falling, single point]"
COc1ccccc1CCNC(=O)C(=O)NCC1OCCN1S(=O)(=O)c1ccc(Cl)cc1 (stereo unspecified),cell number change,,30.3%
same,AC50,[2],"1.16 µM [rising, full curve, poor fit]"
same,AC50,[1],"14.6 µM [rising, single point]"
Cc1cc(C)c(C)c(C(=O)CSc2nnc(-c3ccc4[nH]c(C)c(C)c4c3)o2)c1C,cell number change,,-75.5%
same,AC50,[2],"11.6 µM [falling, partial curve]"
same,AC50,[1],"13 µM [falling, partial curve]"
CCOC(=O)c1cc(-c2ccccc2)n(Cc2cc(CC)no2)n1,AC50,[1],"5.17 µM [falling, partial curve, poor fit]"
O=C(NC1CCCC1)C(c1ccc(F)cc1)N(C(=O)c1csnn1)c1ccccc1 (stereo unspecified),cell number change,,-21.9%
Cc1ccnc(SCc2nc3ccccc3s2)n1,cell number change,,8.89%
CC(=O)Nc1cccc(N(C)C)c1,cell number change,,-5.66%
CC(=O)Nc1ccc(S(=O)(=O)N2CCN(CC(O)COc3ccc4ccccc4c3)CC2)cc1 (stereo unspecified),cell number change,,-12%
same,AC50,[1],"2.59 µM [rising, single point]"
COc1cc(NC(=O)CSc2nc(=O)n(CCN3CCOCC3)c3c2CCC3)cc(OC)c1,AC50,[2],"0.206 µM [rising, partial curve]"
COc1cc(OC)cc(C(=O)Nc2ccc3c(c2)COC3=O)c1,cell number change,,-3.44%
same,AC50,[1],"0.651 µM [falling, single point]"
COc1cc2c(cc1NC(=O)Cn1cnc3c1c(=O)n(C)c(=O)n3C)oc1ccccc12,cell number change,,17.2%
same,AC50,[1],"1.46 µM [rising, full curve]"
CCOc1ccccc1/C=N/NC(=O)CNC(=O)c1ccc(S(=O)(=O)N2CCOCC2)cc1,cell number change,,15%
same,AC50,[2],"1.64 µM [falling, single point]"
COc1ccc2c(c1)[nH]c1c(Cl)ncnc12,cell number change,,-12%
same,AC50,[1],"0.461 µM [falling, partial curve, poor fit]"
CCCOc1ccc(OCCOCCNCc2ccccc2)cc1,cell number change,,19%
same,AC50,[1],"16.4 µM [rising, single point]"
Cn1c(=O)c2sccc2n2c(CCCC(=O)NCc3ccc(F)cc3)nnc12,cell number change,,4.76%
same,AC50,[1],"29.1 µM [falling, single point]"
CCCS(=O)(=O)N1CCC(C(=O)NCCCN2CCCC2=O)CC1,cell number change,,-4.61%
COC(=O)[C@H](CC(C)C)NC(=O)N1CCCCC1,cell number change,,-10.5%
same,AC50,[1],"29.1 µM [falling, single point]"
COc1ccc(NC(=O)CN2CCOCC2)cc1S(=O)(=O)N1CCCCC1,cell number change,,9.56%
same,AC50,[1],"1.16 µM [rising, full curve]"
Clc1cccc(C2=NOC(c3nnc(-c4ccccc4)o3)C2)c1 (stereo unspecified),cell number change,,32.7%
same,AC50,[2],"0.0651 µM [rising, full curve, poor fit]"
same,AC50,[1],"20.6 µM [rising, partial curve, poor fit]"
Cc1nn(C)cc1/C=N/NC(=O)Cn1cncn1,cell number change,,-20.6%
O=C(NCc1ccc2c(c1)OCO2)C(=O)Nc1cc2c3c(c1)CC(=O)N3CCC2,cell number change,,43.8%
same,AC50,[2],"5.8 µM [rising, partial curve]"
O=C(CC1(O)C(=O)N(Cc2ccccc2)c2ccccc21)c1ccc2c(c1)OCO2 (stereo unspecified),cell number change,,126%
same,AC50,[2],"2.06 µM [rising, partial curve]"
CN(CCCNC(=O)CN1C(=O)CC(C)(C)S(=O)(=O)c2ccccc21)C1CCCCC1,cell number change,,33.1%
same,AC50,[2],"32.6 µM [rising, single point]"
same,AC50,[1],"6.51 µM [rising, single point]"
O=c1[nH]c(-c2cccs2)nc2ccccc12,cell number change,,-15.4%
same,AC50,[2],"0.116 µM [falling, full curve]"
same,AC50,[1],"0.366 µM [falling, full curve, poor fit]"
CCC(C)(C)C(=O)Nc1cccc(Cl)c1C,cell number change,,34.6%
COc1cccc(NC(=O)CCN2CCN(c3ccccc3F)CC2)c1,cell number change,,53.3%
same,AC50,[2],"11.6 µM [rising, partial curve]"
same,AC50,[1],"6.51 µM [rising, single point]"
Cc1nc2ccccc2c(=O)n1/N=C/c1c(O)ccc2oc3c(c12)CCCC3,cell number change,,12.4%
same,AC50,[1],"0.0206 µM [rising, full curve, poor fit]"
Cc1nc(C)c(-c2csc(Nc3ccc(C(=O)O)c(O)c3)n2)s1,cell number change,,-25.5%
same,AC50,[1],"6.51 µM [rising, single point]"
COc1cccc(-c2ncc3ccccc3c2CO)c1,cell number change,,-57.9%
same,AC50,[2],"9.2 µM [falling, single point]"
same,AC50,[1],"10.3 µM [falling, single point]"
COc1ccccc1N(C(=O)CNC(=O)c1ccco1)C(C(=O)NC1CCCC1)c1ccco1 (stereo unspecified),cell number change,,9.58%
same,AC50,[1],"1.46 µM [rising, partial curve]"

# Shown with tabs: part of the list above
smiles	measurement	setting	value
COc1cc2c(cc1NC(=O)Cn1cnc3c1c(=O)n(C)c(=O)n3C)oc1ccccc12	cell number change		17.2%
same	AC50	[1]	1.46 µM [rising, full curve]
CCOc1ccccc1/C=N/NC(=O)CNC(=O)c1ccc(S(=O)(=O)N2CCOCC2)cc1	cell number change		15%
same	AC50	[2]	1.64 µM [falling, single point]
COc1ccc2c(c1)[nH]c1c(Cl)ncnc12	cell number change		-12%
same	AC50	[1]	0.461 µM [falling, partial curve, poor fit]
